Some of these results come from one statement about several compounds together. At least one structure is not confirmed: it was looked up by name or label, or the drawing left a doubt.
Tested on: banana embryos or leaf material
Test: Comparison of selection using ALS inhibitor, G418 or hygromycin (genotyping of embryos or leaf material)
Format: cell-based
Text: In every case, regenerated material was transformed with constructs containing T-DNA that would generate resistance in positive transformants.

Question: For `CN[C@@H]1[C@@H](O)[C@@H](O[C@@H]2[C@@H](O)[C@H](O[C@H]3O[C@H]([C@@H](C)O)[C@@H](O)[C@H](O)[C@H]3N)[C@@H](N)C[C@H]2N)OC[C@]1(C)O` [Plasmid G418], which Editing frequency (stable selection using G418 or hygromycin) is on record?
Answer: 43-61%

Question: And the “Efficiency of generating transgenic lines of banana” value (stable selection with either G418 or hygromycin)?
Answer: 64-71%
